Measured values published in publication PMC6445127, “WNT5A is transported via lipoprotein particles in the cerebrospinal fluid to regulate hindbrain morphogenesis” (Nature Communications, 2019).
Results are given in words; binding and its absence hold for the method and conditions named. In cells and extracts the contact can be indirect. Some results given as binding are weak or reduced against the parent protein; the word gives no strength. Sequences can lack the tags named with a protein.

Sequences of proteins named here, by UniProt entry; tags and fusion partners are left off. Residues count along the entry.
UniProt Q06890, residues 22-448: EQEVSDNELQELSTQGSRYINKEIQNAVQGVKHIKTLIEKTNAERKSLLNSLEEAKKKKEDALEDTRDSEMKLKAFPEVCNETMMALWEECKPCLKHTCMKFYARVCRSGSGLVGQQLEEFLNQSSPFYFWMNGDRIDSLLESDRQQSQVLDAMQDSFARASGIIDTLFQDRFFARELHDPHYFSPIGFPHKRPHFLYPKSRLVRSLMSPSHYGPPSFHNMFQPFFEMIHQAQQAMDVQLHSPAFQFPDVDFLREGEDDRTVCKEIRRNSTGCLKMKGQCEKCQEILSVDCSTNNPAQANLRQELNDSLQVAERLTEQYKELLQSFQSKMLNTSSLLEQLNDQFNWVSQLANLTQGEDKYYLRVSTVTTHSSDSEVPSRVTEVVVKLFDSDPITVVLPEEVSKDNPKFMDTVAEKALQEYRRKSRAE

T1: mouse V5-tagged WNT5A (mouse) (UniProt P22725)
T1 sequence: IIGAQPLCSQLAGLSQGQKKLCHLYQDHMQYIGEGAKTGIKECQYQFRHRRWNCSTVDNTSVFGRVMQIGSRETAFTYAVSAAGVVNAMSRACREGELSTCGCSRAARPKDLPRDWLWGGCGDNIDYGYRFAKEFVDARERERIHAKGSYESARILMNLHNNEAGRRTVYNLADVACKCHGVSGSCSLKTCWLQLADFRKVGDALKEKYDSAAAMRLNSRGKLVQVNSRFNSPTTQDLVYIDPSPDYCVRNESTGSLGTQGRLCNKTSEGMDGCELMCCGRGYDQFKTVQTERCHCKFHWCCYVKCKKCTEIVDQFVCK

T2: HA-tagged APOE (Apolipoprotein E) (UniProt P08226)
T2 sequence: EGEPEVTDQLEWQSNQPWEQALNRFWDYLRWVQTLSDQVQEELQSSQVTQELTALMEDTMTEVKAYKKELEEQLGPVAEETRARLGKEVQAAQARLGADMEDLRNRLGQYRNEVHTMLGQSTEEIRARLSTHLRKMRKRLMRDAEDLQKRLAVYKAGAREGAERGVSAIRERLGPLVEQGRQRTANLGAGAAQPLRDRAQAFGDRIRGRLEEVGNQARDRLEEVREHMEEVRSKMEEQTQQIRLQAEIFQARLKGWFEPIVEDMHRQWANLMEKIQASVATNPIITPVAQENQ


Tests used:
Test in all cases: co-IP; WNT5A-V5 and HA-tagged APOJ or APOE overexpressed in HEK293T cells; lysis buffer 50 mM Tris pH 7.6, 200 mM NaCl, 1 mM EDTA, 0.5% NP40; immunoprecipitation with anti-V5 or anti-HA antibody or control IgG on DynaBeads, 4 °C; western blot
[1] = target: T1, mouse V5-tagged WNT5A (mouse)
[2] = target: HA-tagged APOJ (Apolipoprotein J, also known as Clusterin) (UniProt Q06890)
[3] = target: T2, HA-tagged APOE (Apolipoprotein E)

binding [1]	binding [2]	binding [3]	Molecule
binds			HA-tagged APOJ (Apolipoprotein J, also known as Clusterin) (from UniProt Q06890 22-448)
binds			HA-tagged APOE (Apolipoprotein E) (protein, UniProt P08226 19-311) EGEPEVTDQLEWQSNQPWEQALNRFWDYLRWVQTLSDQVQEELQSSQVTQELTALMEDTMTEVKAYKKELEEQLGPVAEETRARLGKEVQAAQARLGADMEDLRNRLGQYRNEVHTMLGQSTEEIRARLSTHLRKMRKRLMRDAEDLQKRLAVYKAGAREGAERGVSAIRERLGPLVEQGRQRTANLGAGAAQPLRDRAQAFGDRIRGRLEEVGNQARDRLEEVREHMEEVRSKMEEQTQQIRLQAEIFQARLKGWFEPIVEDMHRQWANLMEKIQASVATNPIITPVAQENQ
	binds	binds	recombinant WNT5A (ligand, UniProt P22725 62-380, looked up, recombinant WNT5A, R&D Systems; 'P22725' is printed where a catalogue number would stand; elsewhere the catalogue number 645-WN-010 is printed; WNT5A'; also called rcWNT5A; rcWnt5a; source: bought: R&D Systems) IIGAQPLCSQLAGLSQGQKKLCHLYQDHMQYIGEGAKTGIKECQYQFRHRRWNCSTVDNTSVFGRVMQIGSRETAFTYAVSAAGVVNAMSRACREGELSTCGCSRAARPKDLPRDWLWGGCGDNIDYGYRFAKEFVDARERERIHAKGSYESARILMNLHNNEAGRRTVYNLADVACKCHGVSGSCSLKTCWLQLADFRKVGDALKEKYDSAAAMRLNSRGKLVQVNSRFNSPTTQDLVYIDPSPDYCVRNESTGSLGTQGRLCNKTSEGMDGCELMCCGRGYDQFKTVQTERCHCKFHWCCYVKCKKCTEIVDQFVCK
